These results are taken from PMC12040169 (PLOS Biology, 2025).

This is one part of the list.

This test has as its system T1, CTL2-GFP (C. trachomatis L2/434/Bu, GFP-expressing).
T1 construct: L2/434/Bu, GFP-expressing
On the set-up: species or system HeLa; Intracellular C. trachomatis growth in HeLa cells, bulk GFP fluorescence relative to DMSO. The following applies: bulk GFP, single well; 28.5 h, 10 µM; inhibitor.
On to `CN1CCC(N(C)C(=O)c2ccc3nccnc3c2)CC1` [CBK269096], for which the “% of control remaining” value was found to be 146.841%. The result for `COC(=O)c1ccsc1NC(=O)c1cc(-c2ccc(C)o2)nc2ccc(Br)cc12` [CBK267752] reads 141.552%; that for `Cc1nn(CCC#N)c(C)c1[C@@H]1C=C[C@@H](NC(=O)Nc2ccccc2)C1` [CBK289173], 147.954%; that for `CC(C)Cn1c(=O)[nH]c2ncc(-c3cccc4ccccc34)nc21` [CBK064194], 136.06%. Consider `Cc1nc(Nc2c(Cl)cc(S(N)(=O)=O)cc2Cl)sc1C(=O)Nc1ccccc1` [CBK265335], for which the “% of control remaining” value is 109.332%. As for `O=C/C(=C\Nc1ccc(S(=O)(=O)N2CCCCC2)cc1)c1nc2ccccc2o1` [CBK262281], the “% of control remaining” value is 106.587%. With `Nc1nc(=O)c2cnc3c(F)cccc3c2s1` [CBK291249], the “% of control remaining” value was determined as 146.779%. Take `CCOC(=O)c1c(CN(C)C)n(-c2ccccc2)c2cc(Br)c(OC)cc12` [CBK115360]: the “% of control remaining” value stood at 82.8251%. Regarding `Cc1ccc(NS(=O)(=O)N(C)C)c(C)c1` [CBK005246], the “% of control remaining” value is 97.4451%. In the case of `CS(=O)(=O)c1cccc(-c2cnc(NCCOc3ccccc3)c(C(=O)NCCc3ccccc3)c2)c1` [CBK076201], the “% of control remaining” value was determined as 168.583%. As to `CCCN(Cc1cccs1)C1Cc2cc(OC)c(OC)cc2C1` [CBK017567C], the “% of control remaining” value is recorded as 86.7603%.

For the compound `CC(=O)Nc1ccc(-c2cc(-c3ccc(NC(C)=O)cc3)nc(-c3ccc([N+](=O)[O-])cc3)n2)cc1` [CBK261273], the “% of control remaining” value was 102.673%. As for `O=C(CCCc1c[nH]c2ccccc12)Nc1cccc(C(=O)O)c1` [CBK287175], the “% of control remaining” value is reported as 86.2912%. Turning to `Cn1ccc(C2CCCCCN2C(=O)c2cc(C3CC3)on2)n1` (stereo not drawn) [CBK283050], the “% of control remaining” value is listed as 127.475%. Regarding `Cc1cccnc1NC(=S)NC(=O)c1ccc([N+](=O)[O-])cc1` [CBK263931], the “% of control remaining” value stood at 122.54%. Take `CC[C@H]1CN(C(=O)c2cccnc2)CC[C@H]1CC(=O)NCc1ccc2c(c1)OCO2` [CBK288771]: the “% of control remaining” value stood at 113.684%.

With `O=C(COc1ccccc1)Nc1nccs1` [CBK058018], the “% of control remaining” value is 119.873%. On to `O=C(Nc1ccncc1)c1cccn(Cc2ccccc2F)c1=O` [CBK287738], for which the “% of control remaining” value turned out to be 56.1012%. With `CC(Sc1ccc(Cl)cc1)C(=O)NCCN1CCOCC1` (stereo not drawn) [CBK269316], the “% of control remaining” value is listed as 105.848%. Under `CC1CCc2nc3ncn(CC(=O)NC4CC4)c(=O)c3cc2C1` (stereo not drawn) [CBK294401] stands 136.382%.

In the case of `COc1ccc(Oc2nccc(N3CCCN(CCc4ccc5ccccc5c4)CC3)n2)cc1OC` [CBK084164], the “% of control remaining” value is 106.652%. Regarding `COc1ccc(-c2cn(-c3ccc4c(c3)CCO4)nn2)cc1` [CBK113027], the “% of control remaining” value is recorded as 100%. The result for `NC(=O)CN(Cc1ccc(Cl)cc1)S(=O)(=O)c1ccccc1` [CBK264149] reads 117.458%; that for `CC(C)NC(=O)CCNc1ncc(C(N)=O)cc1Cl` [CBK306373], 90.7464%. In the case of `Cc1ccc(S(=O)(=O)Nc2c(C(=O)N3CCOCC3)[nH]c3ccccc23)cc1` [CBK050066], the “% of control remaining” value is on record as 118.481%. As for `Nc1ncc(-c2cc3ccccc3s2)nc1-c1ccc(CCC(=O)O)cc1` [CBK064134], the “% of control remaining” value worked out at 149.734%. Turning to `COc1ccc(C2CC(c3ccccc3O)=NN2)cc1` (stereo not drawn) [CBK287281], the “% of control remaining” value amounted to 156.078%. On to `CCn1c2ccccc2c2cc(Nc3cc(-c4ccc(OC(F)(F)F)cc4)ncn3)ccc21` [CBK090842], for which the “% of control remaining” value came out at 123.569%. On to `O=C(O)CCCCCNc1ncnc2sc3c(c12)CCCC3` [CBK077446], for which the “% of control remaining” value is listed as 92.2309%. `COc1ccccc1C1OC(=O)C[C@@H]1C(=O)Nc1cc(C(C)(C)C)on1` (stereo partly drawn) [CBK021439]: the “% of control remaining” value came to 107.244%. Consider `CC(C)NC(=O)NC[C@H]1C[C@@H]2CC[N@]1C[C@@H]2CN1CCN(c2ncccn2)CC1` [CBK289116], for which the “% of control remaining” value was 128.119%.

As for `O=[N+]([O-])c1cccc(S(=O)(=O)NCc2ccccn2)c1` [CBK263669], the “% of control remaining” value is listed as 112.268%. Regarding `Cc1cnc(CNC(=O)/C=C/c2ccc(C(C)C)cc2)cn1` [CBK149625], the “% of control remaining” value is on record as 101.739%.

With `CCOC(=O)NC(=O)CSc1nnc(C2COc3ccccc3O2)n1-c1ccccc1` (stereo not drawn) [CBK297884], the “% of control remaining” value is on record as 144.967%. Regarding `COCc1ccccc1Cn1cnc2ccccc21` [CBK267496], the “% of control remaining” value was 88.0323%. As for `CC(C)(C)OC(=O)Nc1cc(Cl)ccc1C(=O)O` [CBK200024], the “% of control remaining” value is listed as 174.467%.

`CC(C)(C)C(=O)NC(NC(=S)Nc1sc2c(c1C(N)=O)CCCC2)C(Cl)(Cl)Cl` (stereo not drawn) [CBK261052]: the “% of control remaining” value came to 82.9659%. Regarding `OCCN(CCO)c1cncc(-c2ccc(F)c(Cl)c2)n1` [CBK066015], the “% of control remaining” value was 218.254%.

Take `N#Cc1c(O)nc(SCC(=O)Nc2ccc(Oc3ccccc3)cc2)nc1-c1ccccc1` [CBK266607]: the “% of control remaining” value is 109.95%.
